{
  "source": "PubChem BioAssay AID720536",
  "about": "(National Center for Advancing Translational Sciences (NCATS), 2013)",
  "note": "The entries are a selection whose mix differs from that of the whole data set. Records with an inconclusive call do not appear. The source made the active and inactive calls. Calls follow the shape of the dose curve; as a rule, active = well fitted inhibition curve with a large enough effect; inconclusive = small, poorly fitted or top-dose-only effect; inactive = no such curve, though single readings can be large or run the other way. Potency is read from the fitted curve at half-maximal effect.",
  "data": [
    {"experiment": "qHTS for Inhibitors of TGF-b: CCL64 Cells Orthogonal Assay for Cherry Picks; also: nearly all actives have a fitted effect of over 65% in size", "conditions": "CCL64 CAGA-GFP reporter, TGF-b stimulated, GFP fluorescence, 18 h", "from_the_text": "TGF-b is a main component in the TGF-b signaling pathway which plays diverse roles in cellular and development pathways. TGF-b is the mediated by the transcription factors Smads. Although the Smad-dependent pathway is the primary canonical TGF-b signaling node, TGF-b1 can also activate alternative signaling pathways, including those involving MAPK (ERK, JNK and p38). This interaction may mediate or enhance Smad-dependent responses, or can exert Smad-independent effects. The complexity of this signaling cascade allows the TGF-b superfamily to perform unique, overlapping or redundant functions. […] We aim to identify Smad3-small molecule antagonists using a quantitative high throughput screening (qHTS) approach. […]\nSuspensions of trypsinized CCL64 CAGA-GFP cells were dispensed into white, tissue culture-treated, solid 1536-well plates at 5uL/well (1000 cells/well final concentration) in DMEM medium supplemented with 1% FBS. […] The plates were measured on an Acumen eX3 Explorer plate reader for GFP fluorescence (ex488/em500-530). GFP values were calculated by determining the mean GFP fluorescence of individual cells, and compiling these values for each well to determine a total well GFP signal. The %Activity was determined from the corrected fluorescence values. […] Concentration-response curves were fitted to the signals arising from the resulting fluorescence. […]", "values": [
      {"smiles": "COc1cc2c(c(OC)c1OC)-c1ccc(OC)c(=O)cc1C(N)CC2", "note": "(stereo unspecified)", "Potency": "active: 1300 nM"}
    ]}
  ]
}
